No constants are given. Whether binding was seen depends on the method and setting. Binding can be weak; no strength is given. Sequences can lack the tags named with a protein.
Assays:
[1] = target: Vpr-R90K fused to the Gal4 DNA binding domain (HIV-1 (strain not stated)) (UniProt P05928); experiment: two-hybrid; L40 yeast strain; Vpr fused to the Gal4 DNA binding domain (lower panels of Figure 1A) with Gal4AD hybrids; growth without histidine and β-gal assay
[2] = target: Vpr-W54R fused to the Gal4 DNA binding domain (HIV-1 (strain not stated)) (UniProt P05928); experiment: as above

B1: human CG1 nucleoporin fused to the Gal4 activation domain (protein, UniProt O15504 1-423)
chain: MAICQFFLQGRCRFGDRCWNEHPGARGAGGGRQQPQQQPSGNNRRGWNTTSQRYSNVIQPSSFSKSTPWGGSRDQEKPYFSSFDSGASTNRKEGFGLSENPFASLSPDEQKDEKKLLEGIVKDMEVWESSGQWMFSVYSPVKKKPNISGFTDISPEELRLEYHNFLTSNNLQSYLNSVQRLINQWRNRVNELKSLNISTKVALLSDVKDGVNQAAPAFGFGSSQAATFMSPGFPVNNSSSDNAQNFSFKTNSGFAAASSGSPAGFGSSPAFGAAASTSSGISTSAPAFGFGKPEVTSAASFSFKSPAASSFGSPGFSGLPASLATGPVRAPVAPAFGGGSSVAGFGSPGSHSHTAFSKPSSDTFGNSSISTSLSASSSIIATDNVLFTPRDKLTVEELEQFQSKKFTLGKIPLKPPPLELLNV
With B1 the binding [1] was “binds” and the binding [2] was “binds”.

Reference: article PMC2211753
